# Assay results: the supplement of paper PMC3334620
# Whole data set: some 33,000 sequences, median “E-score (-0.5 to 0.5)” near -0.0059, cut for the highest 2% near 0.26. The list shows a part of the results.
# Target: T1, Cin5 (UniProt P40917)
# T1 sequence: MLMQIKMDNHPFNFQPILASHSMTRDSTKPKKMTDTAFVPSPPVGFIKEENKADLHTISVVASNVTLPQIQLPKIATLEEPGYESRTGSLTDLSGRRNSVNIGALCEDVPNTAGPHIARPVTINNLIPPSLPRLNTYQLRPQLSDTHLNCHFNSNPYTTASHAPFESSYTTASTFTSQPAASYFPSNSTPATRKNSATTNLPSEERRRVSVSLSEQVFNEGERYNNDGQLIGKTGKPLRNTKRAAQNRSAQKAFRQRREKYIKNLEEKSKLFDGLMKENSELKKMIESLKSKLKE
# Test: PBM E-score (8-mer binding enrichment) (E-score (-0.5 to 0.5)); higher = stronger / more preferred TF binding
# Conditions: protein concentration: 100 nM; construct: GST-full length
# Outline: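 Each ungapped eight-base word and its reverse complement, pooled, received an E-score from the Universal PBM Analysis Suite. Underlying scans, normalised with masliner, recorded fluorescent anti-GST bound to GST-tagged yeast transcription factors. These were applied at about 100-200 nM to universal all-10-mer Agilent arrays double-stranded by primer extension.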
row,Sequence,PBM E-score
1,ACTTACAA,0.163
2,AAGAGTAA,0.0771
3,AGTGTCTA,-0.0127
4,CCGCCCCA,0.109
5,ACTCCCCA,0.106
6,CTTACTCC,0.0384
7,GTGGCAAC,-0.0786
8,ATGGGTAA,0.113
9,CCCTATGC,0.0135
10,AGAAAGCG,0.0282
11,ACTTCGGA,0.163
12,CCTAAGGA,-0.0261
13,AGGCGACT,-0.206
14,GCTCGAAA,-0.0143
15,GCACGCCA,-0.27
16,ATTGTTCG,0.131
17,CAACCGAG,0.0694
18,GCGGCGCC,0.115
19,TCTCTAAA,-0.131
20,CAGCGAAG,-0.187
21,GACCTCAA,-0.00016
22,CCCACCGC,0.104
23,ATCTCCTG,0.013
24,CTTTTCGA,0.00347
25,GTATCGAA,0.165

# Exported with tabs: part of the list above
row	Sequence	PBM E-score
14	GCTCGAAA	-0.0143
15	GCACGCCA	-0.27
16	ATTGTTCG	0.131
17	CAACCGAG	0.0694
18	GCGGCGCC	0.115

# The list continues.

row,Sequence,PBM E-score
1,TATTCGCA,0.142
2,CGAACAAA,0.272
3,CCATATGA,-0.0136
4,ATAGAGGC,-0.297
5,ATTCAGGA,-0.0382
6,AGTATCGC,0.0508
7,CTTCACGA,-0.257
8,AAAGAACT,-0.0138
9,GCATGGTA,0.0106
10,CCCTCACA,0.00055
11,ACCATCTC,0.158
12,TCTGCCCA,-0.166
13,AGTGCGAT,0.0262
14,GGTTCAGA,-0.18
15,GGTTTTGA,0.127
16,AGAGGACC,-0.22
17,CTTTTGGA,-0.0744
18,TCAATAAA,0.0175
19,CCGATACC,-0.12
20,TCCAGAGA,-0.0725
21,CAACCCAG,-0.131
22,CTGGACAA,-0.0606
23,CGACAAAA,0.0427
24,ACCACCGA,-0.143
25,CCTCCTGC,-0.159

# Reprinted at random: 5 records from the list.
row,Sequence,PBM E-score
4,ATAGAGGC,-0.297
17,CAACCGAG,0.0694
15,GCACGCCA,-0.27
14,GGTTCAGA,-0.18
16,AGAGGACC,-0.22

# Going on with the list:

row,Sequence,PBM E-score
1,AACCTTGG,-0.0583
2,CGCATTAA,0.127
3,TTGAGCAA,-0.0752
4,GAGTACGC,-0.205
5,GCAGAGAC,-0.271
6,TACCGAGA,-0.0161
7,CAGACCAC,-0.00112
8,AATTTGAC,0.133
9,GACTCAGA,-0.142
10,AAGCCCCG,-0.0295
11,ATTATAAA,0.195
12,CCTAGCGA,-0.215
13,CGGTTAAA,0.0537
14,ACTGCATC,0.108
15,GAGGTTGA,-0.133
16,AGCGTTGA,-0.195
17,GACGGTGC,-0.124
18,GTGGCCAC,0.0208
19,AGGGAGGC,-0.336
20,ACTCGCGG,-0.035
21,CGATGATC,0.02
22,ATGTCACG,0.11
23,AAGACGAG,-0.0816
24,GAGGCAAA,0.0934
25,ATCGCTCG,0.022

# A portion taken from the entries so far:
row,Sequence,PBM E-score
1,AACCTTGG,-0.0583
2,CGCATTAA,0.127

# Further entries follow.

row,Sequence,PBM E-score
1,ACTACACT,-0.0752
2,ACGATAAC,0.175
3,ACTGGAAC,-0.0303
4,TTTATAAA,0.259
5,AGTCGATG,0.101
6,AAGCCAGT,-0.147
7,ATGAGGTG,0.0777
8,TGGACACA,0.0222
9,GCAGGGTA,-0.112
10,AATCCCTG,0.0164
11,ACCAGTAC,-0.0707
12,CACGCACC,-0.261
13,ACTAGGCT,-0.0636
14,AGGCTAGA,-0.291
15,CTGTCTGC,-0.211
16,CCTTCTAG,-0.227
17,CTCAACCA,0.0963
18,CGACCCCA,0.0462
19,ACGGTTGG,-0.0488
20,CTCATCAA,0.0793
21,CGATAGCA,-0.0588
22,ATGATCTA,0.214
23,AAACCGTA,-0.147
24,AATCATCC,0.227
25,ATTCGCTA,0.00117

row,Sequence,PBM E-score
1,AGGGCGCC,-0.159
2,CATACGGC,0.0834
3,GATATAGA,0.0867
4,CAGGCTTA,0.0661
5,TAAACCTA,0.118
6,TCCGTAGA,-0.132
7,ACGGTAGG,-0.0787
8,AGGTCACT,-0.262
9,AGCGAACC,-0.0568
10,CTGGGTAC,-0.151
11,AGTGGAAC,0.0539
12,ATTGGGCC,0.103
13,CCCAGCGG,-0.255
14,CGGCATTA,0.143
15,GCCTTCCC,-0.293
16,TCGTACGA,-0.0634
17,GCATGGCC,-0.126
18,ATATAATC,0.21
19,AACCACGG,-0.0848
20,CTGGGGGA,-0.375
21,CAATGGGG,0.0111
22,CATAGTTC,0.0652
23,CGAACACC,-0.0878
24,AGGAGGAC,-0.344
25,CCGCTCTA,0.00943

row,Sequence,PBM E-score
1,CAGGCTCC,-0.263
2,AACAAAAT,0.269
3,AATGAACG,0.113
4,AATACGAG,0.0911
5,AACCTACC,-0.023
6,AACCATCC,-0.0275
7,ACTATCGC,0.05
8,ACTAAGTC,-0.0533
9,TATAAAGA,0.0342
10,CCCGGCCC,-0.266
11,CTTCTTAC,-0.0456
12,GCCAATAA,0.216
13,AAAGCTGT,0.101
14,CAGCCCAC,-0.0991
15,ACTCTCGA,0.0307
16,AGCTAGGG,-0.0275
17,ACCCTATG,-0.00452
18,CGTATTAA,0.106
19,ACAGTCCG,-0.286
20,GCGGGGCC,-0.202
21,ATAGTTAC,0.121
22,AACCAACC,-0.0801
23,ACAGGTCG,-0.13
24,AATTGTGG,0.0144
25,GGCTCTGA,-0.183

row,Sequence,PBM E-score
1,ATCACTTA,0.0476
2,GTGGGGCA,-0.0176
3,ATTAATCG,0.228
4,TCTCATCA,0.184
5,CTGTAGGC,-0.155
6,CACGTTAC,-0.104
7,CTTACTTA,0.25
8,GGTGTAAA,0.0437
9,CTACACTA,-0.00599
10,GGTTTCTA,0.11
11,CTGTGTTA,0.154
12,ATTATCCA,0.122
13,CTACGGCA,-0.147
14,GATTTAAC,0.00182
15,GTCGTTCA,-0.111
16,CCGGCCAA,-0.138
17,CCTGCATC,-0.128
18,AATGCCAG,-0.0328
19,ATGCGTAG,-0.066
20,ACGATACT,-0.00523
21,CTACATAC,0.172
22,CGGCGAGA,0.0316
